Laboratory results as given in doi:10.1101/495820.
Substitutions are numbered along the chain they refer to. Names may count otherwise. Results are given in words; binding and its absence hold for the method and conditions named. For some assays here: Binding seen in cells or lysates may run through a third protein. Some entries that bind do so weakly or less than the wild type. Where a sequence is shown, tags or fusion partners need not be part of it.

Key:
[1] = target: T1, His-tagged N-terminal fragment of ScpA (ScpA-N) (B. subtilis) (UniProt P35154); test: co-purification
T1 sequence: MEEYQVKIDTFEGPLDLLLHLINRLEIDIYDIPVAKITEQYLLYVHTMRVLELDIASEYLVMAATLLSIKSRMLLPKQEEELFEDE

[2] = target: Smc(3A-hng, K1151C)-HaloTag (B. subtilis) (UniProt P51834); test: cross-linking
[3] = target: Smc(3A-hng, EQ, K1151C)-HaloTag (B. subtilis) (UniProt P51834); test: cross-linking
[4] = target: Smc(S152C, R558C, N634C)-HaloTag (B. subtilis) (UniProt P51834); test: cross-linking
[5] = target: Smc(D280C)-HaloTag with the pair of cysteines at the Smc hinge (B. subtilis) (UniProt P51834); test: cross-linking
[6] = target: DnaN (N114C, V313C)-HaloTag (B. subtilis) (UniProt P05649); test: cross-linking
[7] = target: T1, His-tagged N-terminal fragment of ScpA (ScpA-N) (B. subtilis); test: SEC

B1: B. subtilis Smc heads (SmcHd) (domain or fragment, UniProt P51834 1-219; P51834 983-1186)
chain: MFLKRLDVIGFKSFAERISVDFVKGVTAVVGPNGSGKSNITDAIRWVLGEQSARSLRGGKMEDIIFAGSDSRKRLNLAEVTLTLDNDDHFLPIDFHEVSVTRRVYRSGESEFLINNQPCRLKDIIDLFMDSGLGKEAFSIISQGKVEEILSSKAEDRRSIFEEAAGVLKYKTRKKKAENKLFETQDNLNRVEDILHELEGQVEPLKIQASIAKDYLEKKGPGLGTVNLGSIDEFERVNERYKFLSEQKEDLTEAKNTLFQVIEEMDEEMTKRFNDTFVQIRSHFDQVFRSLFGGGRAELRLTDPNDLLHSGVEIIAQPPGKKLQNLNLLSGGERALTAIALLFSILKVRPVPFCVLDEVEAALDEANVFRFAQYLKKYSSDTQFIVITHRKGTMEEADVLYGVTMQESGVSKVISVKLEETKEFVQ
[1]
  binding: binds

B2: Smc(3A-hng, K1151C)-HaloTag (protein, UniProt P51834 1-1186)
chain: MFLKRLDVIGFKSFAERISVDFVKGVTAVVGPNGSGKSNITDAIRWVLGEQSARSLRGGKMEDIIFAGSDSRKRLNLAEVTLTLDNDDHFLPIDFHEVSVTRRVYRSGESEFLINNQPCRLKDIIDLFMDSGLGKEAFSIISQGKVEEILSSKAEDRRSIFEEAAGVLKYKTRKKKAENKLFETQDNLNRVEDILHELEGQVEPLKIQASIAKDYLEKKKELEHVEIALTAYDIEELHGKWSTLKEKVQMAKEEELAESSAISAKEAKIEDTRDKIQALDESVDELQQVLLVTSEELEKLEGRKEVLKERKKNAVQNQEQLEEAIVQFQQKETVLKEELSKQEAVFETLQAEVKQLRAQVKEKQQALSLHNENVEEKIEQLKSDYFELLNSQASIRNELQLLDDQMSQSAVTLQRLADNNEKHLQERHDISARKAACETEFARIEQEIHSQVGAYRDMQTKYEQKKRQYEKNESALYQAYQYVQQARSKKDMLETMQGDFSGFYQGVKEVLKAKERLGGIRGAVLELISTEQKYETAIEIALGASAQHVVTDDEQSARKAIQYLKQNSFGRATFLPLSVIRDRQLQSRDAETAARHSSFLGVASELVTFDPAYRSVIQNLLGTVLITEDLKGANELAKLLGHRYRIVTLEGDVVNPGGSMTGGAVAAANNSLLGRSRELEDVTKRLAEMEEKTALLEQEVKTLKHSIQDMEKKLADLRETGEGLRLKQQDVKGQLYELQVAEKNINTHLELYDQEKSALSESDEERKVRKRKLEEELSAVSEKMKQLEEDIDRLTKQKQTQSSTKESLSNELTELKIAAAKKEQACKGEEDNLARLKKELTETELALKEAKEDLSFLTSEMSSSTSGEEKLEEAAKHKLNDKTKTIELIALRRDQRIKLQHGLDTYERELKEMKRLYKQKTTLLKDEEVKLGRMEVELDNLLQYLREEYSLSFEGAKEKYQLETDPEEARKRVKLIKLAIEELGTVNLGSIDEFERVNERYKFLSEQKEDLTEAKNTLFQVIEEMDEEMTKRFNDTFVQIRSHFDQVFRSLFGGGRAELRLTDPNDLLHSGVEIIAQPPGKKLQNLNLLSGGERALTAIALLFSILKVRPVPFCVLDEVEAALDEANVFRFAQYLKKYSSDTQFIVITHRCGTMEEADVLYGVTMQESGVSKVISVKLEETKEFVQ
[2]
  binding: binds

B3: Smc(3A-hng, EQ, K1151C)-HaloTag (protein, UniProt P51834 1-1186)
chain: B2 chain with E1118Q
[3]
  binding: binds

B4: SmcHd(3A-hd) (domain or fragment, UniProt P51834 1-219; P51834 983-1186)
chain: B1 chain with K60A, R120A, K122A
[1]
  binding: binds

B5: Smc(S152C, R558C, N634C)-HaloTag (protein, UniProt P51834 1-1186)
chain: B2 chain with S152C, R558C, N634C, A666K, A667K, A668K, C1151K
[4]
  binding: binds

B6: Smc(D280C)-HaloTag with the pair of cysteines at the Smc hinge (protein, UniProt P51834 1-1186)
chain: B2 chain with D280C, R558C, N634C, A666K, A667K, A668K, C1151K
[5]
  binding: binds

B7: DnaN (N114C, V313C)-HaloTag (protein, UniProt P05649 1-378)
chain: MKFTIQKDRLVESVQDVLKAVSSRTTIPILTGIKIVASDDGVSFTGSDSDISIESFIPKEEGDKEIVTIEQPGSIVLQARFFSEIVKKLPMATVEIEVQNQYLTIIRSGKAEFCLNGLDADEYPHLPQIEEHHAIQIPTDLLKNLIRQTVFAVSTSETRPILTGVNWKVEQSELLCTATDSHRLALRKAKLDIPEDRSYNVVIPGKSLTELSKILDDNQELVDIVITETQVLFKAKNVLFFSRLLDGNYPDTTSLIPQDSKTEIIVNTKEFLQAIDRASLLAREGRNNVVKLSAKPAESIEISSNSPEIGKVCEAIVADQIEGEELNISFSPKYMLDALKVLEGAEIRVSFTGAMRPFLIRTPNDETIVQLILPVRTY
[6]
  binding: binds

B8: SmcHd(EQ) (domain or fragment, UniProt P51834 1-219; P51834 983-1186)
chain: B1 chain with E358Q
[7]
  binding: binds
[1]
  binding: binds

B9: SmcHd(EQ, 3A-hd) (domain or fragment, UniProt P51834 1-219; P51834 983-1186)
chain: B1 chain with K60A, R120A, K122A, E358Q
[7]
  binding: binds
[1]
  binding: binds
